# Assay results taken from the supplement of paper PMC8728848.
# The other results are listed elsewhere or left out.
# B1: Flo10 (Saccharomyces cerevisiae), P36170 (protein)
# chain: MPVAARYIFLTGLFLLSVANVALGTTEACLPAGEKKNGMTINFYQYSLKDSSTYSNPSYMAYGYADAEKLGSVSGQTKLSIDYSIPCNGASDTCACSDDDATEYSASQVVPVKRGVKLCSDNTTLSSKTEKRENDDCDQGAAYWSSDLFGFYTTPTNVTVEMTGYFLPPKTGTYTFGFATVDDSAILSVGGNVAFECCKQEQPPITSTDFTINGIKPWNADAPTDIKGSTYMYAGYYYPIKIVYSNAVSWGTLPVSVVLPDGTEVNDDFEGYVFSFDDNATQAHCSVPNPAEHARTCVSSATSSWSSSEVCTECTETESTSYVTPYVTSSSWSSSEVCTECTETESTSTSTPYVTSSSSSSSEVCTECTETESTSYVTPYVSSSTAAANYTSSFSSSSEVCTECTETESTSTSTPYVTSSSWSSSEVCTECTETESTSYVTPYVSSSTAAANYTSSFSSSSEVCTECTETESTSTSTPYVTSSSSSSSEVCTECTETESTSYVTPYVSSSTAAANYTSSFSSSSEVCTECTETESTSTSTPYVTSSSWSSSEVCTECTETESTSYVTPYVSSSTAAANYTSSFSSSSEVCTECTETESTSTSTPYATSSTGTATSFTASTSNTMTSLVQTDTTVSFSLSSTVSEHTNAPTSSVESNASTFISSNKGSVKSYVTSSIHSITPMYPSNQTVTSSSVVSTPITSESSESSASVTILPSTITSEFKPSTMKTKVVSISSSPTNLITSYDTTSKDSTVGSSTSSVSLISSISLPSSYSASSEQIFHSSIVSSNGQALTSFSSTKVSSSESSESHRTSPTTSSESGIKSSGVEIESTSTSSFSFHETSTASTSVQISSQFVTPSSPISTVAPRSTGLNSQTESTNSSKETMSSENSASVMPSSSATSPKTGKVTSDETSSGFSRDRTTVYRMTSETPSTNEQTTLITVSSCESNSCSNTVSSAVVSTATTTINGITTEYTTWCPLSATELTTVSKLESEEKTTLITVTSCESGVCSETASPAIVSTATATVNDVVTVYSTWSPQATNKLAVSSDIENSASKASFVSEAAETKSISRNNNFVPTSGTTSIETHTTTTSNASENSDNVSASEAVSSKSVTNPVLISVSQQPRGTPASSMIGSSTASLEMSSYLGIANHLLTNSGISIFIASLLLAIV
# Assays:
# Experiment in all cases: glycan array binding signal (z-score within array); higher = stronger binding
# Conditions in all cases: glycan notation: IUPAC condensed, linker removed
# Fuc(a1-2)[Gal(a1-3)]Gal = molecular target: Fuc(a1-2)[Gal(a1-3)]Gal
# Procedure, shortened: (§1)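 The binding signal is a Z-score computed within each array. Data were drawn from 3228 arrays in the Consortium for Functional Glycomics database, restricted to those with a known protein sequence. Scores were averaged over arrays of the same protein sequence at different concentrations or buffers, and over linkers, and negative values can be taken as non-binding.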
# [1] = molecular target: Fuc(a1-2)[Gal(a1-3)]Gal(b1-3)GlcNAc
# Procedure, shortened: as §1
# [2] = molecular target: Fuc(a1-2)[Gal(a1-3)]Gal(b1-3)GlcNAc(b1-2)Man(a1-3)[Fuc(a1-2)[Gal(a1-3)]Gal(b1-3)GlcNAc(b1-2)Man(a1-6)]Man(b1-4)GlcNAc(b1-4)GlcNAc
# Procedure, shortened: as §1
# [3] = molecular target: Fuc(a1-2)[Gal(a1-3)]Gal(b1-4)Glc
# Procedure, shortened: as §1
# [4] = molecular target: Fuc(a1-2)[Gal(a1-3)]Gal(b1-4)GlcNAc
# Procedure, shortened: as §1
# [5] = molecular target: Fuc(a1-2)[Gal(a1-3)]Gal(b1-4)GlcNAc(b1-2)Man(a1-3)[Fuc(a1-2)[Gal(a1-3)]Gal(b1-4)GlcNAc(b1-2)Man(a1-6)]Man(b1-4)GlcNAc(b1-4)GlcNAc
# Procedure, shortened: as §1
# [6] = molecular target: Fuc(a1-2)[Gal(a1-3)]Gal(b1-4)[Fuc(a1-3)]GlcNAc
# Procedure, shortened: as §1
# [7] = molecular target: Fuc(a1-2)[Gal(a1-4)]Gal(b1-4)GlcNAc
# Procedure, shortened: as §1
# [8] = molecular target: Fuc(a1-2)[GalNAc(a1-3)]Gal
# Procedure, shortened: as §1
# [9] = molecular target: Fuc(a1-2)[GalNAc(a1-3)]Gal(b1-3)GalNAc(a1-3)[Fuc(a1-2)]Gal(b1-4)GlcNAc
# Procedure, shortened: as §1
# [10] = molecular target: Fuc(a1-2)[GalNAc(a1-3)]Gal(b1-3)GlcNAc
# Procedure, shortened: as §1
# [11] = molecular target: Fuc(a1-2)[GalNAc(a1-3)]Gal(b1-3)GlcNAc(b1-2)Man(a1-3)[Fuc(a1-2)[GalNAc(a1-3)]Gal(b1-3)GlcNAc(b1-2)Man(a1-6)]Man(b1-4)GlcNAc(b1-4)GlcNAc
# Procedure, shortened: as §1
# [12] = molecular target: Fuc(a1-2)[GalNAc(a1-3)]Gal(b1-4)Glc
# Procedure, shortened: as §1
# [13] = molecular target: Fuc(a1-2)[GalNAc(a1-3)]Gal(b1-4)GlcNAc
# Procedure, shortened: as §1
# [14] = molecular target: Fuc(a1-2)[GalNAc(a1-3)]Gal(b1-4)GlcNAc(b1-2)Man(a1-3)[Fuc(a1-2)[GalNAc(a1-3)]Gal(b1-4)GlcNAc(b1-2)Man(a1-6)]Man(b1-4)GlcNAc(b1-4)GlcNAc
# Procedure, shortened: as §1
# [15] = molecular target: Fuc(a1-2)[GalNAc(a1-3)]Gal(b1-4)GlcNAc(b1-3)Gal(b1-4)GlcNAc
# Procedure, shortened: as §1
# [16] = molecular target: Fuc(a1-2)[GalNAc(a1-3)]Gal(b1-4)GlcNAc(b1-3)Gal(b1-4)GlcNAc(b1-3)Gal(b1-4)GlcNAc
# Procedure, shortened: as §1
# [17] = molecular target: Fuc(a1-2)[GalNAc(a1-3)]Gal(b1-4)[Fuc(a1-3)]GlcNAc
# Procedure, shortened: as §1
# [18] = molecular target: Fuc(a1-2)[GalNAc(a1-4)]Gal(b1-4)GlcNAc
# Procedure, shortened: as §1
# [19] = molecular target: Fuc(a1-2)[GalNAc(b1-3)]Gal
# Procedure, shortened: as §1
# Fuc(a1-3)GlcNAc = molecular target: Fuc(a1-3)GlcNAc
# Procedure, shortened: as §1
# [20] = molecular target: Fuc(a1-3)[Gal(b1-4)]Glc6S
# Procedure, shortened: as §1
# [21] = molecular target: Fuc(a1-3)[Gal(b1-4)]GlcNAc
# Procedure, shortened: as §1
# [22] = molecular target: Fuc(a1-3)[Gal(b1-4)]GlcNAc(b1-2)Man(a1-3)[Fuc(a1-3)[Gal(b1-4)]GlcNAc(b1-2)Man(a1-6)]Man(b1-4)GlcNAc(b1-4)GlcNAc
# Procedure, shortened: as §1
# [23] = molecular target: Fuc(a1-3)[Gal(b1-4)]GlcNAc(b1-3)Gal(b1-3)[Fuc(a1-4)]GlcNAc
# Procedure, shortened: as §1
# [24] = molecular target: Fuc(a1-3)[Gal(b1-4)]GlcNAc(b1-3)GalNAc
# Procedure, shortened: as §1
# [25] = molecular target: Fuc(a1-3)[Gal(b1-4)]GlcNAc(b1-4)Gal(b1-4)[Fuc(a1-3)]GlcNAc
# Procedure, shortened: as §1
# [26] = molecular target: Fuc(a1-3)[Gal(b1-4)]GlcNAc(b1-4)Gal(b1-4)[Fuc(a1-3)]GlcNAc(b1-4)Gal(b1-4)[Fuc(a1-3)]GlcNAc
# Procedure, shortened: as §1
# [27] = molecular target: Fuc(a1-3)[Gal(b1-4)]GlcNAc(b1-6)[Gal(b1-3)GlcNAc(b1-3)]Gal(b1-4)Glc
# Procedure, shortened: as §1
# [28] = molecular target: Fuc(a1-3)[Gal(b1-4)]GlcNAc6S
# Procedure, shortened: as §1
# [29] = molecular target: Fuc(a1-3)[Gal3S(b1-4)]GlcNAc
# Procedure, shortened: as §1
# [30] = molecular target: Fuc(a1-3)[Gal3S(b1-4)]GlcNAc6S
# Procedure, shortened: as §1
# [31] = molecular target: Fuc(a1-3)[GalNAc(b1-4)]GlcNAc
# Procedure, shortened: as §1
# Fuc(a1-4)GlcNAc = molecular target: Fuc(a1-4)GlcNAc
# Procedure, shortened: as §1
# Fuc(b1-3)GlcNAc = molecular target: Fuc(b1-3)GlcNAc
# Procedure, shortened: as §1
# Gal(a1-2)Gal = molecular target: Gal(a1-2)Gal
# Procedure, shortened: as §1
# Gal(a1-3)Gal = molecular target: Gal(a1-3)Gal
# Procedure, shortened: as §1
# Gal(a1-3)Gal(b1-3)GlcNAc = molecular target: Gal(a1-3)Gal(b1-3)GlcNAc
# Procedure, shortened: as §1
# [32] = molecular target: Gal(a1-3)Gal(b1-3)GlcNAc(b1-2)Man(a1-3)[Gal(a1-3)Gal(b1-3)GlcNAc(b1-2)Man(a1-6)]Man(b1-4)GlcNAc(b1-4)GlcNAc
# Procedure, shortened: as §1
# [33] = molecular target: Gal(a1-3)Gal(b1-3)[Fuc(a1-4)]GlcNAc(b1-2)Man(a1-3)[Gal(a1-3)Gal(b1-3)[Fuc(a1-4)]GlcNAc(b1-2)Man(a1-6)]Man(b1-4)GlcNAc(b1-4)GlcNAc
# Procedure, shortened: as §1
# Gal(a1-3)Gal(b1-4)Glc = molecular target: Gal(a1-3)Gal(b1-4)Glc
# Procedure, shortened: as §1
# Gal(a1-3)Gal(b1-4)GlcNAc = molecular target: Gal(a1-3)Gal(b1-4)GlcNAc
# Procedure, shortened: as §1
# [34] = molecular target: Gal(a1-3)Gal(b1-4)GlcNAc(b1-3)GalNAc
# Procedure, shortened: as §1
# [35] = molecular target: Gal(a1-3)Gal(b1-4)[Fuc(a1-3)]GlcNAc
# Procedure, shortened: as §1
# [36] = molecular target: Gal(a1-3)Gal(b1-4)[Fuc(a1-3)]GlcNAc(b1-2)Man(a1-3)[Gal(a1-3)Gal(b1-4)[Fuc(a1-3)]GlcNAc(b1-2)Man(a1-6)]Man(b1-4)GlcNAc(b1-4)GlcNAc
# Procedure, shortened: as §1
binder,measurement,setting,value
B1,glycan array binding signal (z-score),Fuc(a1-2)[Gal(a1-3)]Gal,-0.579
same,glycan array binding signal (z-score),[1],-0.233
same,glycan array binding signal (z-score),[2],-0.584
same,glycan array binding signal (z-score),[3],-0.49
same,glycan array binding signal (z-score),[4],-0.515
same,glycan array binding signal (z-score),[5],0.105
same,glycan array binding signal (z-score),[6],1.68
same,glycan array binding signal (z-score),[7],0.109
same,glycan array binding signal (z-score),[8],1.09
same,glycan array binding signal (z-score),[9],1.12
same,glycan array binding signal (z-score),[10],-0.144
same,glycan array binding signal (z-score),[11],-0.763
same,glycan array binding signal (z-score),[12],-0.594
same,glycan array binding signal (z-score),[13],0.515
same,glycan array binding signal (z-score),[14],3.27
same,glycan array binding signal (z-score),[15],4.78
same,glycan array binding signal (z-score),[16],5.34
same,glycan array binding signal (z-score),[17],-0.6
same,glycan array binding signal (z-score),[18],-0.76
same,glycan array binding signal (z-score),[19],-0.704
same,glycan array binding signal (z-score),Fuc(a1-3)GlcNAc,-0.833
same,glycan array binding signal (z-score),[20],0.096
same,glycan array binding signal (z-score),[21],0.685
same,glycan array binding signal (z-score),[22],0.178
same,glycan array binding signal (z-score),[23],-0.763
same,glycan array binding signal (z-score),[24],-0.536
same,glycan array binding signal (z-score),[25],-0.637
same,glycan array binding signal (z-score),[26],-0.607
same,glycan array binding signal (z-score),[27],0.141
same,glycan array binding signal (z-score),[28],0.388
same,glycan array binding signal (z-score),[29],-0.406
same,glycan array binding signal (z-score),[30],0.429
same,glycan array binding signal (z-score),[31],0.073
same,glycan array binding signal (z-score),Fuc(a1-4)GlcNAc,-0.586
same,glycan array binding signal (z-score),Fuc(b1-3)GlcNAc,-0.561
same,glycan array binding signal (z-score),Gal(a1-2)Gal,3.67
same,glycan array binding signal (z-score),Gal(a1-3)Gal,-0.002
same,glycan array binding signal (z-score),Gal(a1-3)Gal(b1-3)GlcNAc,-0.114
same,glycan array binding signal (z-score),[32],0.626
same,glycan array binding signal (z-score),[33],-0.055
same,glycan array binding signal (z-score),Gal(a1-3)Gal(b1-4)Glc,0.341
same,glycan array binding signal (z-score),Gal(a1-3)Gal(b1-4)GlcNAc,-0.627
same,glycan array binding signal (z-score),[34],-0.351
same,glycan array binding signal (z-score),[35],-0.169
same,glycan array binding signal (z-score),[36],-0.784

# Part of the list above in another layout.
binder | measurement | setting | value
B1 | glycan array binding signal (z-score) | Fuc(a1-2)[Gal(a1-3)]Gal | -0.579
same | glycan array binding signal (z-score) | [2] | -0.584
same | glycan array binding signal (z-score) | [3] | -0.49
same | glycan array binding signal (z-score) | [5] | 0.105
same | glycan array binding signal (z-score) | [17] | -0.6
same | glycan array binding signal (z-score) | [24] | -0.536
same | glycan array binding signal (z-score) | [25] | -0.637
same | glycan array binding signal (z-score) | [27] | 0.141
same | glycan array binding signal (z-score) | [28] | 0.388
same | glycan array binding signal (z-score) | Fuc(a1-4)GlcNAc | -0.586
same | glycan array binding signal (z-score) | Gal(a1-3)Gal(b1-3)GlcNAc | -0.114
